Data published in patent US20180237519A1 (OHIO STATE INNOVATION FOUNDATION, published 2018).
These are yes or no findings as the source states them, for the method shown. Some results given as binding are weak or reduced against the parent protein; the word gives no strength.

The chains behind the UniProt entries cited, without tags or fusion partners. Residues count along the entry.
UniProt Q9NQ25, residues 23-335: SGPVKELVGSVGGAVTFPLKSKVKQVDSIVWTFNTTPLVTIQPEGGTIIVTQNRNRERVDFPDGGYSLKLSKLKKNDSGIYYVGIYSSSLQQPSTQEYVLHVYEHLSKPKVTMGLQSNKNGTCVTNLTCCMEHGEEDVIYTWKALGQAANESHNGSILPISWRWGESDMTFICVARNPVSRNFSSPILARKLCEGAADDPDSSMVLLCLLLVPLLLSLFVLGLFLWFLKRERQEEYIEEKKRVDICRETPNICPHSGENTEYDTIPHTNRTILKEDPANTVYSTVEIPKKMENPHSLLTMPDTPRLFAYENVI

Tests used:
CS-1 [1] = molecular target: T1, CS-1 (human, UniProt Q9NQ25 23-335); assay: flow cytometry on multiple myeloma cells, MFI against isotype control
CS-1 [2] = molecular target: T1, CS-1; assay: flow cytometry on H929 cells; protein L-biotin and anti-biotin PE for detection

B1: anti-CS-1 tri-specific cytotoxic lymphocytes engager (TriCLE) (bispecific antibody)
chain: QVQLVESGGGLVKPGGSLRLSCAASGFTFSSYGMHWVRQAPGKGLEWVAFIRYDGSNKYYADSVKGRFTISRDNSKNTLYLQMNSLRAEDTAVYYCAKDRGLGDGTYFDYWGQGTTVTVSSGGGGSGGGGSGGGGSQSALTQPASVSGSPGQSITISCSGSSSNIGNNAVNWYQQLPGKAPKLLIYYDDLLPSGVSDRFSGSKSGTSAFLAISGLQSEDEADYYCAAWDDSLNGPVFGGGTKLTVLPSGQAGAAASESLFVSNHAYKLELKTGAGFTLPTSYHQQCYYVALDEAQVNSITFTFDTGSGSGTFRDPVGTYRYSASYILLKPSQGPKQQYWAVGTIVDQSAKCTISVRDGVSTSMSKQSQTMVIDGGGGSGGGGSGGGGSSVTVSTGQGWYDMARTAIMTSRACYYVASDESTPSSLQMYATSSSKDVTLTAKDKFKQNLRTESDSPHIMGIWELGQGPRQKVWNMWYTTFSYGSAKCSLKVSAGPRVLEAGPQQLQVQSHHHHHH
binding (CS-1 [1]): binds
binding (CS-1 [2]): binds
